Here are results for two molecules from paper PMC12533114.

Protein sequences, listed by entry. Tags and fused reporters are not part of them.
UniProt P51593: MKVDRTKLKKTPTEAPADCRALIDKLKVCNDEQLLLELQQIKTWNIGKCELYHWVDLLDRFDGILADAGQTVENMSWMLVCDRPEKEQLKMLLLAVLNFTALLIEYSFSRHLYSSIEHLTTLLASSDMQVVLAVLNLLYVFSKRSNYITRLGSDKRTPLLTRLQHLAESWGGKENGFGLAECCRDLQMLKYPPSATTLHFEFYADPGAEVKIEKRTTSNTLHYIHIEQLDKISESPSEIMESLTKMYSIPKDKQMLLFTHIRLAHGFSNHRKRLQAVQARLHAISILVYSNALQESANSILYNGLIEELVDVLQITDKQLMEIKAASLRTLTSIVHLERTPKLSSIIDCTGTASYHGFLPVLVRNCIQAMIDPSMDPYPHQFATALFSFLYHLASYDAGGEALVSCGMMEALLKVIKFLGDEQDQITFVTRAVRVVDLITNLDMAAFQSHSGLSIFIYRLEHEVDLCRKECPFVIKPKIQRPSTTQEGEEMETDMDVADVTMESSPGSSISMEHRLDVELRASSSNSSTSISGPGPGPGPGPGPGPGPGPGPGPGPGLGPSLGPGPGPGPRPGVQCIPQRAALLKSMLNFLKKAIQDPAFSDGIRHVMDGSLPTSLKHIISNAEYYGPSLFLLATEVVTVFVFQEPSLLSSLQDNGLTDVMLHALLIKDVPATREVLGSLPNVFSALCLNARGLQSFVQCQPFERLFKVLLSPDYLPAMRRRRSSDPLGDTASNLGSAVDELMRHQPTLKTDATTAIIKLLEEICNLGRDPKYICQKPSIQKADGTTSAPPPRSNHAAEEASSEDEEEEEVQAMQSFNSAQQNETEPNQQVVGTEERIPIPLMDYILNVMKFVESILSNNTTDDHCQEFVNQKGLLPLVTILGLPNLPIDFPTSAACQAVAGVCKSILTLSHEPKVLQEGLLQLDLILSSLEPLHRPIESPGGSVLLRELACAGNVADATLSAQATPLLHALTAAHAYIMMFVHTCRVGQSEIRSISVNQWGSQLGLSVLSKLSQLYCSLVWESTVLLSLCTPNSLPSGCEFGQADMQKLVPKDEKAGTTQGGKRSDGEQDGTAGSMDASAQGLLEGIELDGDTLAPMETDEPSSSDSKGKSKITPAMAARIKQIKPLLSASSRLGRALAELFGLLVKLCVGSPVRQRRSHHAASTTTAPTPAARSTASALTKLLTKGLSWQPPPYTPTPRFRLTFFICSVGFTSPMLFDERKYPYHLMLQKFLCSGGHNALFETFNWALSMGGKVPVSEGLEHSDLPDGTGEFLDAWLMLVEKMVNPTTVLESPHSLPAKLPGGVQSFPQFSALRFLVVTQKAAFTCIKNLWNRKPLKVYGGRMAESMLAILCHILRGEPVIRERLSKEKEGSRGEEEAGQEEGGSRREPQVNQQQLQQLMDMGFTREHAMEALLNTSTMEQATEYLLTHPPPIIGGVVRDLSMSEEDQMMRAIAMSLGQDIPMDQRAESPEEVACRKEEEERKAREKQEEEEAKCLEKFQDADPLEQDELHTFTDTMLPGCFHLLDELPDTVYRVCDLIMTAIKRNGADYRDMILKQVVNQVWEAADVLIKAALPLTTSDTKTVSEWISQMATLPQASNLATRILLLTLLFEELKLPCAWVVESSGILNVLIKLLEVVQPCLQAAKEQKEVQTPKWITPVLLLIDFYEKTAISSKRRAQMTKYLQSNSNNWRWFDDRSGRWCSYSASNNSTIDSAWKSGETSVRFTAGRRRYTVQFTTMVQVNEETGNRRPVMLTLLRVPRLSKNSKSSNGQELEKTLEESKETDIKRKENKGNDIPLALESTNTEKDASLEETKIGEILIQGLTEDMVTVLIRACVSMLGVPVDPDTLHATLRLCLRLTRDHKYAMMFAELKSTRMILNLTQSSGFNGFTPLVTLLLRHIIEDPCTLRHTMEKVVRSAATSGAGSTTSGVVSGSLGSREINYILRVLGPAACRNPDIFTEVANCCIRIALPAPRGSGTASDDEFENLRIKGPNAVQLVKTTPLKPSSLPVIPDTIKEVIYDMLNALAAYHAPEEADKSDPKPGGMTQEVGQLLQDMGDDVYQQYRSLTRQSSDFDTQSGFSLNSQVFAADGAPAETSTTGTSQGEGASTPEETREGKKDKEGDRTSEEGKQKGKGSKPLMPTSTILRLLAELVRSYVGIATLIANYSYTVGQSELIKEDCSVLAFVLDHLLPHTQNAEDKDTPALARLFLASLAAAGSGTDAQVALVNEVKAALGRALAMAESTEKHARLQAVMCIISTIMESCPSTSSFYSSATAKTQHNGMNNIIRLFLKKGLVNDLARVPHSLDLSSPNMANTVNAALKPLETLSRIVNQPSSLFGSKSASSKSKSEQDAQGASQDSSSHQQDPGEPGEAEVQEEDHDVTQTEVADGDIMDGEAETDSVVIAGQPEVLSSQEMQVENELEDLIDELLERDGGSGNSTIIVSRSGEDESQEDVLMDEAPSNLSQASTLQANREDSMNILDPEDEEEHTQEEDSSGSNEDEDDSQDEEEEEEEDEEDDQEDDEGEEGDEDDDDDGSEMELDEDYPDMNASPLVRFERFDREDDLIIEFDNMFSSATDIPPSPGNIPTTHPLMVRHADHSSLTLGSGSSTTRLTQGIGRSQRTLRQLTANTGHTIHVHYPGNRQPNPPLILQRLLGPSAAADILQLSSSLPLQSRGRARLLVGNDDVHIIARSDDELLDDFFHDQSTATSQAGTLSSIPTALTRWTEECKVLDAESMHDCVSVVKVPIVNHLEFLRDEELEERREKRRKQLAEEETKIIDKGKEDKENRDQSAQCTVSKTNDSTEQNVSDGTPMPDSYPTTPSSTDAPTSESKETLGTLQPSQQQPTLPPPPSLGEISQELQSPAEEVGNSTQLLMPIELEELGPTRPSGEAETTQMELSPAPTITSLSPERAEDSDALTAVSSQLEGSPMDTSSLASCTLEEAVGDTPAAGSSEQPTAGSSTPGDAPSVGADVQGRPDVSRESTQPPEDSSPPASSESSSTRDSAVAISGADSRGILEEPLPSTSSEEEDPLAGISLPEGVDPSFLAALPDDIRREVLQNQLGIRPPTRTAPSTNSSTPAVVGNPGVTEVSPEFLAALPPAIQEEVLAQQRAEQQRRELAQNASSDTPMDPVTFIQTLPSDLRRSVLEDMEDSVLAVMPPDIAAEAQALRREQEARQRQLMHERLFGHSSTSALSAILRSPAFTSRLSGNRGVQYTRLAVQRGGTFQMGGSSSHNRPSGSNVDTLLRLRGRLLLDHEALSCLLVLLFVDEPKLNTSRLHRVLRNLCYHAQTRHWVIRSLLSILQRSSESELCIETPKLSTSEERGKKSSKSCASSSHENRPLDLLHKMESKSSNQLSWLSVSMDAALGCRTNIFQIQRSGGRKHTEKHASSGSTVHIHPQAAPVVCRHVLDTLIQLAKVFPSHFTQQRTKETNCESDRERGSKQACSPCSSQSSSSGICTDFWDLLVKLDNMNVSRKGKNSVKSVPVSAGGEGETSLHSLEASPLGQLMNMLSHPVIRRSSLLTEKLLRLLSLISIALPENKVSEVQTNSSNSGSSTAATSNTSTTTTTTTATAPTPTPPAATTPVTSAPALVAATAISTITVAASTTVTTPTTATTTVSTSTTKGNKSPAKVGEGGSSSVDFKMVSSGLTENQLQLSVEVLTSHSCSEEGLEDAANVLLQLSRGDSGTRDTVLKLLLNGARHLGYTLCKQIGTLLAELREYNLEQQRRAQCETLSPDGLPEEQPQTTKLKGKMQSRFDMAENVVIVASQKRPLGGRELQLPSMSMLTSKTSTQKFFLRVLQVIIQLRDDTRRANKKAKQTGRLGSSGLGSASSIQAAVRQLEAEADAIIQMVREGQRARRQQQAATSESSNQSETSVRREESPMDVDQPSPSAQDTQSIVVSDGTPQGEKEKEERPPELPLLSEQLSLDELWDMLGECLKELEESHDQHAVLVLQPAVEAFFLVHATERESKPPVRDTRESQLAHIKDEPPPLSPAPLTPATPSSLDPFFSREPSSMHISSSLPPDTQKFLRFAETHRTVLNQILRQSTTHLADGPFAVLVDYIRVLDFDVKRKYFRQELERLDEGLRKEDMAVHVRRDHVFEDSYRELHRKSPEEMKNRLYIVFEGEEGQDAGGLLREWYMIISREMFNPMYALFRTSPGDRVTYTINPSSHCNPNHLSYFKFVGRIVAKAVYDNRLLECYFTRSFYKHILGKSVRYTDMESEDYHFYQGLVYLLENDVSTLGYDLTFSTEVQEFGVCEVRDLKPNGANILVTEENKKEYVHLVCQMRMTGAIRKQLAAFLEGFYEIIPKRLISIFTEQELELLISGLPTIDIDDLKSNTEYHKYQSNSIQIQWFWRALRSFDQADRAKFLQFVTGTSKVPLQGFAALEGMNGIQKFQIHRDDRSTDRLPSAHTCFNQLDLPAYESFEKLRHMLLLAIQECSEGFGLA

These are yes or no findings as the source states them, for the method shown. Binding seen in cells or lysates may run through a third protein. Some binding calls cover weakened binding; strength is not graded here.

The target in the test is T1, neurofilament light chain protein (rat (endogenous in SD rats)) (UniProt P19527).
T1 sequence: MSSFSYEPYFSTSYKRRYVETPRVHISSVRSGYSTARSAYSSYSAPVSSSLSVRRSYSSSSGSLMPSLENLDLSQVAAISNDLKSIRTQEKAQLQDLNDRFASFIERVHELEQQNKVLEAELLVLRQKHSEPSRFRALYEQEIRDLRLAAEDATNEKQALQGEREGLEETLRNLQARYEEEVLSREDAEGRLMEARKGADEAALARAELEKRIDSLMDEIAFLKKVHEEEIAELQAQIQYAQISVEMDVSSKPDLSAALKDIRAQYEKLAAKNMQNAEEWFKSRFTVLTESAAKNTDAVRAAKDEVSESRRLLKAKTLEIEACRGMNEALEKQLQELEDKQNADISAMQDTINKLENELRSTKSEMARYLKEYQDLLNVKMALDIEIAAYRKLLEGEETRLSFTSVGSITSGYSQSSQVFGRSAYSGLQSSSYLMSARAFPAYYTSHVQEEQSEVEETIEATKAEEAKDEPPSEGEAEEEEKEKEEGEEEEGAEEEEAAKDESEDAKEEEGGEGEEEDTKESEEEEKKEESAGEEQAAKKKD
Put plainly: co-IP; total protein of elderly control and high-dose atorvastatin rat groups; NFL antibody or IgG overnight at 4 °C, Protein A agarose beads; Western blot for Sirt2, Huwe1 and NFL.

Take “HUWE1 (from UniProt P51593 1-4454) (enzyme)”: the binding result is recorded as “binds”.

B1: SIRT2 (enzyme, UniProt Q5RJQ4 1-350)
chain: MDFLRNLFTQTLGLGSQKERLLDELTLEGVTRYMQSERCRRVICLVGAGISTSAGIPDFRSPSTGLYANLEKYHLPYPEAIFEISYFKKHPEPFFALAKELYPGQFKPTICHYFIRLLKEKGLLLRCYTQNIDTLERVAGLEPQDLVEAHGTFYTSHCVNTSCGKEYTMSWMKEKIFSEATPKCEKCQNVVKPDIVFFGENLPPRFFSCMQSDFSKVDLLIIMGTSLQVQPFASLISKAPLATPRLLINKEKTGQTDPFLGMMMGLGGGMDFDSKKAYRDVAWLGDCDQGCLALADLLGWKELEDLVRREHANIDAQSGSQASNPSATVSPRKSPPPAKEAARTKEKEEH
For B1, the binding result was “binds”.
